In article PMC5579058:
Results are given in words; binding and its absence hold for the method and conditions named. Binding can be weak; no strength is given.

How the values were obtained:
[1] = target: GhTCP14a (Gossypium hirsutum (upland cotton)); assay: two-hybrid; GAL4 system, Y2HGold yeast; GhTCP14a or GhTCP22 with fiber-related TFs; growth on TDO medium (lacking Leu, Trp and His) with 1 mM 3-AT; which partner was bait is not stated
[2] = target: GhTCP22 (Gossypium hirsutum (upland cotton)); assay: as above

- binding [1]: binds
- binding [2]: binds
B1: GhTTG1 (protein, UniProt Q9ATD6 1-345)
chain: MENSTQESHLRSDNSVTYESAYTVYAMALSSTPSSTNINHQRIALGSFLEDYTNRVDIISFDPETLSFKTHPKLAFDHPYPPTKLMFQPNRKSASSSSSCSDLLASTGDFLRLWEVRESSIEPVTVLNNSKTSEFCAPLTSFDWNDVEPKRIGTSSIDTTCTIWDIEKCVVETQLIAHDKEVYDIAWGEARVFASVSADGSVRIFDLRDKEHSTIIYESPQPDTPLLRLAWNKQDLKYMATIQMDSNKVVILDIRSPTTPVAELERHHASVNAIAWAPQSCKHICSAGDDTQALIWELPTVAGPNGIDPLCVYSAGYEINQLQWSRAQPDWIAIAFSNKLQLLKV
